Structures can show the parent of a compound that is named as a salt. The list shows a part of the results. Baselines shift from plate to plate; read single values as rough.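 Wild-type or misfolding-prone missense mutant B-domain-deleted factor VIII, fused to Gaussia luciferase, is stably expressed in HEK293 lines. Each score is (mean triplicate-well luminescence minus DMSO mean) divided by DMSO standard deviation. Hits score at least 2; lower scores could stem from decreased secretion or poorer cell viability.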
tested on: HEK293 WT BDD-FVIII-Gluc; assay: secreted FVIII-Gluc luciferase Z-score vs DMSO control; higher = more FVIII-Gluc secretion; conditions: 5 µM; 24 h

Secreted FVIII-Gluc luciferase Z-score, inactive:
Cc1ncc([N+](=O)[O-])n1CC(C)O (stereo unspecified) [Secnidazole (Flagentyl)] -0.255, CCOC(=O)[C@H](CCc1ccccc1)N[C@H]1CCc2ccccc2N(CC(=O)O)C1=O [Benazepril hydrochloride] 0.592, CC(C)[N+]1(C)[C@@H]2CC[C@H]1C[C@@H](OC(=O)C(CO)c1ccccc1)C2 (stereo partly specified) [Ipratropium bromide] -3.03, CN(C)C/C=C/C(=O)Nc1cc2c(Nc3ccc(F)c(Cl)c3)ncnc2cc1O[C@H]1CCOC1 [Afatinib (BIBW2992)] -3.88, CN(Cc1cc(Br)cc(Br)c1N)C1CCCCC1 [Bromhexine HCl] 1.75, C=CC(=O)N1CCC[C@@H](n2nc(-c3ccc(Oc4ccccc4)cc3)c3c(N)ncnc32)C1 -6.78, CC1(C)[C@@H](OC(=O)CCC(=O)O)CC[C@]2(C)[C@H]3C(=O)C=C4[C@@H]5C[C@@](C)(C(=O)O)CC[C@]5(C)CC[C@@]4(C)[C@]3(C)CC[C@@H]12 [Carbenoxolone Sodium] 0.0331, Cc1nc(Nc2ncc(C(=O)Nc3c(C)cccc3Cl)s2)cc(N2CCN(CCO)CC2)n1 -4.55, c1ccc(CN(CC2=NCCN2)c2ccccc2)cc1 [Antazoline HCl] 0.167, C=CCc1cc(OC)c(O)c(C(=O)NCCO)c1 [Alibendol] -2.42, C#CCC(Cc1cnc2nc(N)nc(N)c2n1)c1ccc(C(=O)N[C@@H](CCC(=O)O)C(=O)O)cc1 (stereo partly specified) [Pralatrexate (Folotyn)] -7.72
